The values that follow come from the supplement of paper PMC10849652.

The chains behind the UniProt entries cited, without tags or fusion partners. Where a name states a change or a piece, a line headed by the entry shows the natural chain unless it says otherwise.
UniProt Q15041, whole entry, looked up: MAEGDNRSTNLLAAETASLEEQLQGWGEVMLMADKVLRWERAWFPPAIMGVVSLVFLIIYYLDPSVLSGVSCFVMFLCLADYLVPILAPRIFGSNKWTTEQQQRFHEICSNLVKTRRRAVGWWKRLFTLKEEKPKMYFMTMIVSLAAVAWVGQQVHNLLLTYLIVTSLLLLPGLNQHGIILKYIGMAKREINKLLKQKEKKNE
UniProt Q8IZT6: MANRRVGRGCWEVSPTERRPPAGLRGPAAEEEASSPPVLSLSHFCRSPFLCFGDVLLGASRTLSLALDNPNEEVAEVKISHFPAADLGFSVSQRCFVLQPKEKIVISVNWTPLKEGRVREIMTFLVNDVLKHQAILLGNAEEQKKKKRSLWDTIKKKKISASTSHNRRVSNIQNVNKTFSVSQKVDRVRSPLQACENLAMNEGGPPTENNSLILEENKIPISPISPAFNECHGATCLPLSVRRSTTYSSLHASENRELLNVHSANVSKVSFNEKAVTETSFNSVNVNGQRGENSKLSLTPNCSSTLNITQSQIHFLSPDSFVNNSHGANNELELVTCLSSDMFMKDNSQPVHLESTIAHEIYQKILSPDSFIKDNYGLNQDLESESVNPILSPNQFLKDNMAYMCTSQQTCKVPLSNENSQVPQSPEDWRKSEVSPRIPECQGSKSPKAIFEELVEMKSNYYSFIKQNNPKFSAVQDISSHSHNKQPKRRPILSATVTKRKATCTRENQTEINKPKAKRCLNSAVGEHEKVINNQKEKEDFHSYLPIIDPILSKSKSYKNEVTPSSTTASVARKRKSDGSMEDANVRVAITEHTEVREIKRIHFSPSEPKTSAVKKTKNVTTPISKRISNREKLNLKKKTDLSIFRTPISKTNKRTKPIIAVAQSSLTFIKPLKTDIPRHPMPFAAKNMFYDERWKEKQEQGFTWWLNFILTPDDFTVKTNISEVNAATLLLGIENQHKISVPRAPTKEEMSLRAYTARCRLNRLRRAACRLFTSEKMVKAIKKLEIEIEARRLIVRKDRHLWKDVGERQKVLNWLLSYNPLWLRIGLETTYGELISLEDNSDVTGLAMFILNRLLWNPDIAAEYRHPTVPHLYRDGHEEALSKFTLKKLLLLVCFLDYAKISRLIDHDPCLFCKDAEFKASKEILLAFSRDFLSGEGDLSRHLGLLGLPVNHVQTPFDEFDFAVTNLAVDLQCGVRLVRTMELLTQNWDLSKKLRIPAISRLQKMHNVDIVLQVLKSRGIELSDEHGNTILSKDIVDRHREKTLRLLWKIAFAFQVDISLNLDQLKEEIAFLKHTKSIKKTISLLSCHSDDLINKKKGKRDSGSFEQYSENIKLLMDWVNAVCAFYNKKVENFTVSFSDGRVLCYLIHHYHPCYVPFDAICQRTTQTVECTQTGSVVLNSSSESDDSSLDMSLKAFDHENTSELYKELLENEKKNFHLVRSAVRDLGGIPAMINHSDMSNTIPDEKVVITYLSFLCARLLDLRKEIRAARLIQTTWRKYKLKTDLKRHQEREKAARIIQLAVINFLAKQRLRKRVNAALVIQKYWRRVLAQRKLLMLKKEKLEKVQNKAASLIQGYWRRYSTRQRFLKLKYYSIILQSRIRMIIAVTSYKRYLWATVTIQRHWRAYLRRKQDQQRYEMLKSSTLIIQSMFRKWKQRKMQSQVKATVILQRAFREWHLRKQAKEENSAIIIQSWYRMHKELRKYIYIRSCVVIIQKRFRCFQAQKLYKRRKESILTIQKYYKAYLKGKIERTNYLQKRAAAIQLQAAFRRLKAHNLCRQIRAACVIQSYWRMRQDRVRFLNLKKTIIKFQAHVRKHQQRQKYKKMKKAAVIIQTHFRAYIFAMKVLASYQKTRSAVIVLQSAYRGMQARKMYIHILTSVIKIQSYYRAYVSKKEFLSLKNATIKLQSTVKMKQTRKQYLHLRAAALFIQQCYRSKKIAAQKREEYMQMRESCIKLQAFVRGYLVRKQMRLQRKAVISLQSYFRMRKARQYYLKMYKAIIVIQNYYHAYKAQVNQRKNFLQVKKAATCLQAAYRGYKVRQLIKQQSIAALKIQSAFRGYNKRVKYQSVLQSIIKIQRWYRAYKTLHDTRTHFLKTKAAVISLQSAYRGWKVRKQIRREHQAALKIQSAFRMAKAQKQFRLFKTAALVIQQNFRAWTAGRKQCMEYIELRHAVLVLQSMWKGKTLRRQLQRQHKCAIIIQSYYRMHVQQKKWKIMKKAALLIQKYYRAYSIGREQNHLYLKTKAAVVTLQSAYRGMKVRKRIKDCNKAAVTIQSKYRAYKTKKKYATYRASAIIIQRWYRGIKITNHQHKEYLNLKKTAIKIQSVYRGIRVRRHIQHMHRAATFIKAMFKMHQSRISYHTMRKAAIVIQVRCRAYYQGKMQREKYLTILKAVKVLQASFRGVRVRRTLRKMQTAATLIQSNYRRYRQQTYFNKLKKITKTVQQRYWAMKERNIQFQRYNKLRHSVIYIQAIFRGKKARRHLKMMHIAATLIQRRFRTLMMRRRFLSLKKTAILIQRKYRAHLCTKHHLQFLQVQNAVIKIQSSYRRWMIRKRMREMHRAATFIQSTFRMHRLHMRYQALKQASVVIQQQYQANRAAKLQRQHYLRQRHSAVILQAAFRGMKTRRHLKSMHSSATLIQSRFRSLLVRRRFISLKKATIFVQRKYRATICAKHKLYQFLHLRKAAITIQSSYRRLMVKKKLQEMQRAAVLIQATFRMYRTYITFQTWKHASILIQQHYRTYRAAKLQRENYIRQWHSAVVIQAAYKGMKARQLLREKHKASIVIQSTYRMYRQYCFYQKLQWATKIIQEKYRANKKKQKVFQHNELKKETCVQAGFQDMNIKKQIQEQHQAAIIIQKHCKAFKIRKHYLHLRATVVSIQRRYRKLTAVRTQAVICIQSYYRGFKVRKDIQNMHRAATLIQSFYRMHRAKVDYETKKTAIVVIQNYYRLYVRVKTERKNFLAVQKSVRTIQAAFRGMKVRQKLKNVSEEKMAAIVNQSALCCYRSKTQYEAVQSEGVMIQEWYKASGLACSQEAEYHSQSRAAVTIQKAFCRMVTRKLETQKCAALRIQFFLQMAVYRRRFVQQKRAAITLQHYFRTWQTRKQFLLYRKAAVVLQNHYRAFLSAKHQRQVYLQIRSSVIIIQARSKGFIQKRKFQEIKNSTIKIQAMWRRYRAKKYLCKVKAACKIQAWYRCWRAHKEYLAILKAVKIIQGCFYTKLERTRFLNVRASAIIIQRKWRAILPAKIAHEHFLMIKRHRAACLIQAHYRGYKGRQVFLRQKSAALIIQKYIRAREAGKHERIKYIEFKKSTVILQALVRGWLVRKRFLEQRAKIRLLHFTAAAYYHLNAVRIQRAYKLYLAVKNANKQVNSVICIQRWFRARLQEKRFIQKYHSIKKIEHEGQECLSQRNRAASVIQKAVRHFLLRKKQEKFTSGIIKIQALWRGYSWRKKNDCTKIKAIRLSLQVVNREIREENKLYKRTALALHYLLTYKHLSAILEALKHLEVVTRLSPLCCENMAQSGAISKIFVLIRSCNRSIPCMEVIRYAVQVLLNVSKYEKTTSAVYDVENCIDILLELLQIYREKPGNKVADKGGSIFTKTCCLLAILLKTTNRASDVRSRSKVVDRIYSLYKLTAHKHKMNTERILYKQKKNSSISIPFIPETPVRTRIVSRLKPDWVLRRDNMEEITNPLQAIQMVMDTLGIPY
UniProt P38606, whole entry, looked up: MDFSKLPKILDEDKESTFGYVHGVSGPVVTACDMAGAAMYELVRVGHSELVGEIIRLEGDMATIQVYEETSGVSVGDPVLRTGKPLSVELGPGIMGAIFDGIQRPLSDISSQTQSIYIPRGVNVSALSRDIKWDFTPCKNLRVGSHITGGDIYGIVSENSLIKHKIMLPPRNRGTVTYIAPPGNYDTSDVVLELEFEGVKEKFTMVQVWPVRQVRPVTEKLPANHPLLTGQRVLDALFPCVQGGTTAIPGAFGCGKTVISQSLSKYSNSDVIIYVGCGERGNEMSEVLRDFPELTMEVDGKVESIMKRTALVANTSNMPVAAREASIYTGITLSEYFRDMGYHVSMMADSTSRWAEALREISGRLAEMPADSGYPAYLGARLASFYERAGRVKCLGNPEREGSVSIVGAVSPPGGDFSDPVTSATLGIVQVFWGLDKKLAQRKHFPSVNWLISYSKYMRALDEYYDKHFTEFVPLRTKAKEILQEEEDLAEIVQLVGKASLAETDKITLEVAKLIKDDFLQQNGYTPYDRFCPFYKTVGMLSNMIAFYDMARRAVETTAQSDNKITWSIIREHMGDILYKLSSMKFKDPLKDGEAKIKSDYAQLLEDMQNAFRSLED
UniProt Q13510, whole entry, looked up: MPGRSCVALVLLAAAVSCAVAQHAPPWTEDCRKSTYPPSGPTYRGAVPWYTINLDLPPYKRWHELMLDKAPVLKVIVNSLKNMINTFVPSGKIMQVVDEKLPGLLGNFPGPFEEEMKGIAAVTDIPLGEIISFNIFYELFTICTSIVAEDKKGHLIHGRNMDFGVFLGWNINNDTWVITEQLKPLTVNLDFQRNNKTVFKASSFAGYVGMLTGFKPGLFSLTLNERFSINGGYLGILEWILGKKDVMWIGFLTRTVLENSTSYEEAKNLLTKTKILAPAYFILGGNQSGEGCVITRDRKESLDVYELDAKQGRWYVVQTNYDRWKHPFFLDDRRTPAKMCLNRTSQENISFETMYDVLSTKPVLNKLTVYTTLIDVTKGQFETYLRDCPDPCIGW
UniProt Q06055: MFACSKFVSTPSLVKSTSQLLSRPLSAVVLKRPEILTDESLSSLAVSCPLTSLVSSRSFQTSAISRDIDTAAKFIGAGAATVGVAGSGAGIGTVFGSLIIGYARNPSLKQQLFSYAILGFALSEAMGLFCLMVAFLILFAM
UniProt P61421, whole entry, looked up: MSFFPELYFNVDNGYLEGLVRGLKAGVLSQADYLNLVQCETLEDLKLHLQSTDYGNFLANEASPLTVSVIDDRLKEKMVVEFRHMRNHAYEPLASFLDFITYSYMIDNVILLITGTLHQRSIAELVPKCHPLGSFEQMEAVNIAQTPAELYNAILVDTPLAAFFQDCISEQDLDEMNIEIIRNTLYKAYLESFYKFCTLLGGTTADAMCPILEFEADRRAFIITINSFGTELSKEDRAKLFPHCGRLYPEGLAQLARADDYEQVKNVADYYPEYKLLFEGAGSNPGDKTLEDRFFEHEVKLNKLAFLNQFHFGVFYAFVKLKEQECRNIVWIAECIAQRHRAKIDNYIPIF
UniProt Q9H2C2: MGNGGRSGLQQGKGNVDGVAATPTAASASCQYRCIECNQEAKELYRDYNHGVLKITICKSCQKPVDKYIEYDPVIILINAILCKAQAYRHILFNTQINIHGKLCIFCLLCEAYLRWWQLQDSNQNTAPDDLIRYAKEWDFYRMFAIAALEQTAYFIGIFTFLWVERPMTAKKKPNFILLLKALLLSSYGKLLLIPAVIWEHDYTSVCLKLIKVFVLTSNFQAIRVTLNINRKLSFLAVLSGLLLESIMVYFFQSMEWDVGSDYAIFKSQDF
UniProt Q8NB49: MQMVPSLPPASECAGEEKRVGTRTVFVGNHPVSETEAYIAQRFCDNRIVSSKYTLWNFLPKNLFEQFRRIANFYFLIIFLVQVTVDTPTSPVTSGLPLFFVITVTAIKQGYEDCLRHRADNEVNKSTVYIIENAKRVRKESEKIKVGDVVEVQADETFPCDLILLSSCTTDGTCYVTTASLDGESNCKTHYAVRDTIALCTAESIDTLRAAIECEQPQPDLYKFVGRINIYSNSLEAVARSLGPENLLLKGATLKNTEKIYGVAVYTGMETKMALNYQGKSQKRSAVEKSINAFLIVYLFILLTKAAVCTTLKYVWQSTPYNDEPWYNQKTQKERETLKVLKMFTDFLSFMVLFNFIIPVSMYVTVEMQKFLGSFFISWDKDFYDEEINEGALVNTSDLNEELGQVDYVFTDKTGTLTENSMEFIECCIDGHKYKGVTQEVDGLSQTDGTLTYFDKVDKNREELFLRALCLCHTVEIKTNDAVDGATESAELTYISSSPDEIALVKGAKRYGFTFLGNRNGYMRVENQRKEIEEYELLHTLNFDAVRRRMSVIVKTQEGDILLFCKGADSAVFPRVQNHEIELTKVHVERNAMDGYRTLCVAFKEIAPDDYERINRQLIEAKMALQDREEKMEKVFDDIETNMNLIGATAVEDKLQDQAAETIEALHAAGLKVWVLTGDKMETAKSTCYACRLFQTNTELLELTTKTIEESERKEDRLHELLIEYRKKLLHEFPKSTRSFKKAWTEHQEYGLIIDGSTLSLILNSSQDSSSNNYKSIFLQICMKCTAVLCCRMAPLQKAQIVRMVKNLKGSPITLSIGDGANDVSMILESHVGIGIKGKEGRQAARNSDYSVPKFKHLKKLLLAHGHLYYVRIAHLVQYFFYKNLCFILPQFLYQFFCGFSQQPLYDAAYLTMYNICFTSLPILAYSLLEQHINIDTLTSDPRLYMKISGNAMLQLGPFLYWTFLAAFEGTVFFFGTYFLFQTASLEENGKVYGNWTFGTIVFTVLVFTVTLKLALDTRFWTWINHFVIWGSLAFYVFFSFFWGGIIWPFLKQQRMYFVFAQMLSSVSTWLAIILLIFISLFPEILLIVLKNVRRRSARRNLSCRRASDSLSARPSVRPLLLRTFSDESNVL

Some of the results follow.

Compound in this assay: CCn1c(C(=O)N(C2CC2)C2CC2)cc2c3c(ncn3C)c(Nc3cc(C)n(C)n3)nc21
Put plainly: log2 fold change, soluble protein after heating vs DMSO (PISA); higher = thermal stabilisation; K562 cells, 10 uM, 30 min; active = over 0.2 and 3.5 SD of the protein, either way, in both replicates (recomputed). The gist of the method: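 K562 cells at 2×10^6 cells/mL were exposed to 10 μM compound for 30 min, then aliquots were heated for 3 min across 48°C-58°C, pooled, and extracted in PBS containing 0.5% NP-40 at 4°C. The supernatant after 21,000xg for 90 min was taken as soluble protein and measured by TMTpro 16plex LC-MS/MS with channel sums equalised. Thermal stability is reported relative to control samples, with values from duplicates. Fold changes are given on a log2 scale.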
Take ATP7A isoform 3 (UniProt Q04656): the log2 fold change is inactive: -0.022.
In the case of ARPC1B (UniProt O15143), the log2 fold change was inactive: 0.014.
The result for ASAP1 isoform 2 (UniProt Q9ULH1) reads inactive: -0.009; that for ATG3 (UniProt Q9NT62), inactive: -0.012; that for ARL6IP1 (UniProt Q15041), inactive: 0.011.
In the case of ATG2A isoform 3 (UniProt Q2TAZ0), the log2 fold change was inactive: -0.007.
Take ARRB2 isoform 4 (UniProt P32121): the log2 fold change was inactive: 0.041.
Regarding ATP5MF (UniProt P56134), the log2 fold change was inactive: -0.105.
As for ASPM (UniProt Q8IZT6), the log2 fold change was inactive: 0.039.
On to ATP6V1A (UniProt P38606), for which the log2 fold change is inactive: 0.049.
For the target ATP11B (UniProt Q9Y2G3), the log2 fold change was inactive: 0.025.
Take ASL (UniProt P04424): the log2 fold change was inactive: 0.016.
With ATP6AP2 (UniProt O75787), the log2 fold change was inactive: 0.046.
As for ASAH1 isoform 2 (UniProt Q13510), the log2 fold change is inactive: 0.122.
ATP5F1A (UniProt P25705): the log2 fold change was inactive: 0.017.
On to ARIH2 (UniProt O95376), for which the log2 fold change was inactive: 0.008.
ARPC3 (UniProt O15145): the log2 fold change is inactive: 0.047.
With ATPAF2 (UniProt Q8N5M1), the log2 fold change is inactive: -0.004.
The result for ATG2B (UniProt Q96BY7) reads inactive: 0.005; that for ARPC1A (UniProt Q92747), inactive: 0.063; that for ATP5F1E (UniProt P56381), inactive: 0.017.
Consider ATE1 isoform 2 (UniProt O95260), for which the log2 fold change is inactive: -0.017.
ASPH (UniProt Q12797): the log2 fold change is inactive: 0.026.
Next, ATP2C1 isoform 7 (UniProt P98194): inactive: -0.008.
ATL3 (UniProt Q6DD88): the log2 fold change is inactive: 0.023.
As for ARPC5 (UniProt O15511), the log2 fold change is inactive: 0.005.
As for ARPC2 (UniProt O15144), the log2 fold change was inactive: 0.033.
The result for ATP5MC2 isoform 2 (UniProt Q06055) reads inactive: 0.011; that for ARMC1 (UniProt Q9NVT9), inactive: -0.034.
Take ATF2 (UniProt P15336): the log2 fold change was inactive: 0.036.
In the case of ATP6V0D1 (UniProt P61421), the log2 fold change was inactive: 0.059.
For the target ASCC3 (UniProt Q8N3C0), the log2 fold change was inactive: -0.107.
ARPC4 isoform 3 (UniProt P59998): the log2 fold change is inactive: 0.043.
For the target ARV1 (UniProt Q9H2C2), the log2 fold change is inactive: -0.006.
Regarding ARSB (UniProt P15848), the log2 fold change is inactive: 0.062.
Regarding ASF1A (UniProt Q9Y294), the log2 fold change was inactive: -0.04.
With ATP11C (UniProt Q8NB49), the log2 fold change is inactive: 0.036.
The result for ATP2B4 (UniProt P23634) reads inactive: 0.002.
